Experimental data from US8911953B2 (Thrasos Innovation, Inc., priority 2005, dated 2014).

Test: Fmoc solid-phase peptide synthesis; Fmoc-Ser(tBu) resin; DIC/HOBt
Conditions: whole synthesis, scale 33 mmol

H-CYYDNSSSVLCKRYRS-OH (cysteine pairing not given here)
crude mass: 69 g
